The record followed here is ChEMBL document CHEMBL4513156, “CO-ADD screening of NCPRI (Romania) compounds”.

The other results are listed elsewhere or left out. Entries with a potency or affinity are not part of this list.

The assay concerns Acinetobacter baumannii. The note with it: Concentration 32 ug.mL-1; ASSAY_TEST Inhibition of Bacterial Growth; detection method Absorption (OD600); MEDIA CAMHB; plate type 384well; NBS; CORNING #3640; time 18 hr.
For `O=C(N/N=C1\CC[C@@H]2[C@H]1[C@H](OC(=O)c1ccccc1)C[C@@H]2OC(=O)c1ccccc1)c1ccncc1`, the Inhibition (as a rule, the relative decrease from the control value, in per cent) was 6.2%.
Consider `COC(=O)CCCCCC[C@@H]1[C@@H](/C=N/NC(=O)c2ccncc2)[C@H](O)C[C@@H]1O`, for which the Inhibition stood at 5.73%.
The molecule `O=C1C[C@@H]2[C@@H](C=NNC(=O)c3ccncc3)[C@@H](C[C@H]2Cl)O1` registered an Inhibition of 13.25%.
The figure for `O=C1C[C@H]2[C@H](/C=N/NC(=O)c3ccncc3)[C@H](C[C@@H]2Cl)O1` is 10.91%; for `O=C(NNC(=O)[C@@H]1C[C@H](C(=O)O)[C@@H]2CC=C[C@@H]21)c1ccncc1` it is 10.12%.
As for `O=C(N/N=C1/C[C@@H]2[C@@H](C(=O)O)[C@H]1C[C@H]2Cl)c1ccncc1`, the figure is 13.38%; as for `O=C(NNC(=O)c1ccc([N+](=O)[O-])cc1C(=O)O)c1ccncc1`, 11.81%.
Molecule `O=C(N/N=C/C[C@@H]1[C@@H](CO)[C@H](O)C[C@@H]1O)c1ccncc1` yielded an Inhibition of 10.76%.
Regarding `CC(C)(C)[Si](C)(C)O[C@H](/C=C/[C@@H]1[C@@H](CC=NNC(=O)c2ccncc2)[C@@H](O)C[C@H]1O[Si](C)(C)C(C)(C)C)CCc1ccccc1`, the Inhibition came out at 9.23%.
In turn, `O=C(NN=CC[C@H]1[C@H](CO)[C@@H](O)C[C@H]1O)c1ccncc1` returned an Inhibition of 4.84%.
As to `COC(=O)CCCCCC[C@@H]1[C@@H](/C=N/NC(=O)c2ccncc2)[C@H](OC(=O)c2ccccc2)C[C@@H]1O`, the Inhibition amounted to 12.31%.
The molecule `O=C(NNC(=O)c1cccc([N+](=O)[O-])c1C(=O)O)c1ccncc1` registered an Inhibition of 16.31%.
As for `O=C(NNC(c1ccccc1)(c1ccccc1)c1ccccc1)c1ccncc1`, the figure is 3.34%; as for `O=C(NNC(=O)[C@@H]1C[C@H](C(=O)O)[C@@H]2CCC[C@@H]21)c1ccncc1`, 10.07%.
As for `O=C(ON/N=C/[C@@H]1[C@@H]2C[C@H](Cl)[C@H]1C[C@H]2O)c1ccncc1`, the figure is 17.71%; as for `O=C(N/N=C/C[C@@H]1[C@@H](/C=N/NC(=O)c2ccncc2)[C@H](O)C[C@@H]1O)c1ccncc1`, 6%; as for `O=C(N/N=C1/C[C@@H]2[C@H](COC(c3ccccc3)(c3ccccc3)c3ccccc3)C[C@H](COC(c3ccccc3)(c3ccccc3)c3ccccc3)[C@@H]2C1)c1ccncc1`, 1.65%.
For the molecule `O=C(NN=C[C@H]1[C@H]2CC(O)OC[C@H]2C[C@H]1O)c1ccncc1` (some centres not stated), the Inhibition is recorded as 5.76%.
The molecule `O=C(N/N=C1/C[C@@H]2[C@H](C1)[C@H](OC(=O)c1ccccc1)C[C@@H]2OC(=O)c1ccccc1)c1ccncc1` came in with an Inhibition of 3.94%.
As for `O=C(N/N=C1/C[C@H]2[C@H](CO)[C@@H]1C[C@@H]2Cl)c1ccncc1`, the Inhibition was 8.22%.
`O=C(NN=CC[C@@H]1[C@@H](/C=C/[C@@H](O)CCc2ccccc2)[C@H](O)C[C@@H]1O)c1ccncc1` had an Inhibition of 6.33%.
Molecule `O=C(N/N=C/C[C@@H]1[C@@H](/C=C/[C@@H](O)COc2cccc(Cl)c2)[C@H](O)C[C@@H]1O)c1ccncc1` registered an Inhibition of 9.98%.
The figure for `CC(C)(C)[Si](C)(C)OCC1C2C[C@H]3C1[C@@H]3/C2=N/NC(=O)c1ccncc1` (some centres not stated) is 4.48%; for `O=C(NN=CC[C@@H]1[C@@H](/C=C/[C@@H](O)CCc2ccccc2)[C@H](OC(=O)c2ccccc2)C[C@@H]1O)c1ccncc1` it is 6.14%.
The molecule `O=C(NN=C[C@H]1[C@@H]2CCO[C@@H]2C[C@@H]1O)c1ccncc1` had an Inhibition of 8.2%.
Consider `O=C(N/N=C/[C@@H]1C[C@H](CO)[C@@H]2CCC[C@@H]21)c1ccncc1`, for which the Inhibition worked out at 7.3%.
Molecule `CC(C)(C)[Si](C)(C)OC[C@H]1[C@H](CC=NNC(=O)c2ccncc2)[C@H](O)C[C@@H]1O[Si](C)(C)C(C)(C)C` showed an Inhibition of 18.94%.
With `O=C(N/N=C1/C2C[C@H]3C(C2C(=O)O)[C@@H]13)c1ccncc1` (some centres not stated), the Inhibition was determined as 8.7%.
Consider `NNC(=O)c1ccncc1` [ISONIAZID], for which the Inhibition is reported as 7.52%.
For `O=C(N/N=C/COc1cccc(Cl)c1)c1ccncc1`, the Inhibition is recorded as 5.96%.
Regarding `COC(=O)C[C@H]1[C@H](/C=N\NC(=O)c2ccncc2)[C@@H](O[Si](C)(C)C(C)(C)C)C[C@@H]1Cl`, the Inhibition turned out to be 20.06%.
As for `O=C(N/N=C1/C2C[C@H]3C(C2CO)[C@H]13)c1ccncc1` (some centres not stated), the Inhibition turned out to be 4.37%.
The figure for `O=C(N/N=C/C[C@@H]1[C@@H](/C=C/[C@@H](O)COc2ccccc2)[C@H](O)C[C@@H]1O)c1ccncc1` is 10.09%; for `O=C(NN=CC[C@@H]1[C@@H](COC2CCCCO2)[C@H](OC2CCCCO2)C[C@@H]1O)c1ccncc1` (some centres not stated) it is 6.84%.
`O=C(N/N=C1\C[C@@H]2[C@@H](CO)[C@H]1C[C@H]2Cl)c1ccncc1` gave an Inhibition of 6.24%.
The figure for `O=C(N/N=C/CCCO)c1ccncc1` is 1.13%; for `O=C(N/N=C1\C[C@@H]2[C@H](COC(c3ccccc3)(c3ccccc3)c3ccccc3)C[C@H](CO)[C@@H]2C1)c1ccncc1` it is 4.55%.
